Laboratory results: PubChem BioAssay AID504774 (Drosophila RNAi Screening Center, 2011)

Test: 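Fly genes whose loss alters survival after alkylation damage to DNA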 (primary screen)
System: Drosophila Kc167 cells
Reagent: long dsRNA against Drosophila genes, about 0.25 µg dsRNA per well
Time to read-out: about 6 days: 3 days knock-down, then 3 days with or without MMS
Treatment: methyl methanesulphonate 0.004% (w/v) for 3 days after knock-down
Measurement: 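ATP-dependent luminescence as a measure of live cells in MMS-exposed wells, quantile normalised within each plate, with replicate values also given as a mean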
Direction: mean viability with MMS and viability with MMS: higher = more surviving cells after MMS
The screen tested about 23,000 reagents; below is a random part of those that have a named target and a result. 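Values are quantile-normalised luminescence on an arbitrary scale; higher means more cells surviving MMS.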 Names joined by + are all predicted targets of the reagent.

| Target gene | amplicon | mean viability with MMS | viability with MMS, replicate 1 | viability with MMS, replicate 2 |
| --- | --- | --- | --- | --- |
| unk (unkempt) | DRSC17093 | 3.57e6 | 3.99e6 | 4.12e6 |
| Ppm1 | DRSC08260 | 3.55e6 | 3.98e6 | 4.05e6 |
| CG42789 | DRSC13793 | 1.78e6 | 4.03e6 | 3.90e6 |
| Oatp30B (Organic anion transporting polypeptide 30B) | DRSC02727 | 3.82e6 | 4.52e6 | 4.16e6 |
| Amy-d + Amy-p | DRSC21242 | 3.52e6 | 3.96e6 | 4.04e6 |
| Prosalpha3T (Proteasome alpha3 subunit, Testis-specific) | DRSC15226 | 3.58e6 | 4.00e6 | 4.11e6 |
| Pex10 (Peroxin 10) | DRSC08599 | 3.60e6 | 4.03e6 | 4.16e6 |
| Pex10 (Peroxin 10) | DRSC22021 | 3.63e6 | 4.18e6 | 4.00e6 |
| ND2 (retired record) | DRSC21274 | 3.59e6 | 4.01e6 | 4.12e6 |
| hgo (homogentisate 1,2-dioxygenase) | DRSC03544 | 3.77e6 | 4.20e6 | 4.35e6 |
| CG5708 | DRSC02881 | 3.57e6 | 4.33e6 | 3.77e6 |
| Ir54a + sub | DRSC06459 | 3.55e6 | 4.00e6 | 4.05e6 |
| Naa35 (N(alpha)-acetyltransferase 35) | DRSC04447 | 3.46e6 | 3.86e6 | 3.93e6 |
| RasGAP1 (Ras GTPase activating protein 1) | DRSC11172 | 3.77e6 | 4.23e6 | 4.22e6 |
| Npc2e (Niemann-Pick type C-2e) | DRSC15522 | 3.59e6 | 4.02e6 | 4.09e6 |
| Npc2e (Niemann-Pick type C-2e) | DRSC22338 | 3.42e6 | 3.87e6 | 3.95e6 |
| RacGAP84C (Rac GTPase activating protein at 84C) | DRSC12630 | 3.50e6 | 3.98e6 | 3.97e6 |
| SERCA (Sarco/endoplasmic reticulum Ca(2+)-ATPase) | DRSC04600 | 3.64e6 | 4.36e6 | 4.14e6 |
| Pka-C3 (Protein kinase, cAMP-dependent, catalytic subunit 3) | DRSC09402 | 3.76e6 | 4.10e6 | 4.36e6 |
| Pka-C3 (Protein kinase, cAMP-dependent, catalytic subunit 3) | DRSC11254 | 3.32e6 | 3.80e6 | 3.67e6 |
| Slob (retired record) | DRSC03436 | 3.63e6 | 4.11e6 | 4.13e6 |
| Iru (Iruka) | DRSC14457 | 3.71e6 | 4.28e6 | 4.15e6 |
| Sap47 (Synapse-associated protein 47kD) | DRSC16850 | 3.39e6 | 3.79e6 | 3.89e6 |
| CG10559 | DRSC14255 | 3.32e6 | 3.72e6 | 3.73e6 |
| CG4891 | DRSC01936 | 3.55e6 | 3.77e6 | 4.31e6 |
| CG6938 | DRSC10752 | 3.60e6 | 4.13e6 | 3.99e6 |
| CG42365 | DRSC04266 | 3.56e6 | 4.09e6 | 3.97e6 |
| fand (fandango) | DRSC06967 | 3.12e6 | 3.60e6 | 3.68e6 |
| Alg2 (ALG2, alpha-1,3/1,6-mannosyltransferase) | DRSC08298 | 3.45e6 | 3.97e6 | 3.86e6 |
| CR31292 (pseudo) | DRSC13120 | 3.15e6 | 3.74e6 | 3.70e6 |
| fzy (fizzy) | DRSC03534 | 3.00e6 | 3.62e6 | 3.54e6 |
| Reg-5 (Rhythmically expressed gene 5) | DRSC04647 | 3.18e6 | 2.86e6 | 3.32e6 |
| CG15514 | DRSC15053 | 3.52e6 | 4.01e6 | 4.00e6 |
| bsh (brain-specific homeobox) | DRSC03498 | 1.86e6 | 4.04e6 | – |
| blanks | DRSC09757 | 3.64e6 | 4.07e6 | 4.20e6 |
| fid (fire dancer) | DRSC14885 | 3.48e6 | 3.96e6 | 3.92e6 |
| fid (fire dancer) | DRSC16464 | 3.50e6 | 3.92e6 | 3.99e6 |
| CG33655 | DRSC03858 | 3.45e6 | 3.98e6 | 3.86e6 |
| MtnD (Metallothionein D) | DRSC22733 | 3.59e6 | 4.11e6 | 3.99e6 |
| eIF6 (eukaryotic translation initiation factor 6) | DRSC04674 | 3.48e6 | 4.12e6 | 3.75e6 |
| Treh (Trehalase) | DRSC04548 | 3.67e6 | 4.13e6 | 4.24e6 |
| CG14515 | DRSC14867 | 3.51e6 | 3.92e6 | 4.00e6 |
| TyrRS-m (Tyrosyl-tRNA synthetase, mitochondrial) | DRSC04286 | 3.03e6 | 2.79e6 | 2.93e6 |
| CG8003 | DRSC10946 | 3.56e6 | 4.07e6 | 4.02e6 |
| Dh31-R (Diuretic hormone 31 Receptor) | DRSC06647 | 3.65e6 | 4.48e6 | 3.91e6 |
| Dh31-R (Diuretic hormone 31 Receptor) | DRSC06669 | 3.69e6 | 4.37e6 | 4.00e6 |
| beta4GalT7 (beta-4-galactosyltransferase 7) | DRSC14385 | 3.63e6 | 4.06e6 | 4.18e6 |
| Debcl (Death executioner Bcl-2) | DRSC04965 | 3.56e6 | 4.02e6 | 4.09e6 |
| ais (aramis) | DRSC10523 | 3.59e6 | 4.11e6 | 4.02e6 |
| CG12164 | DRSC06115 | 3.72e6 | 4.21e6 | 4.25e6 |
| CG12164 | DRSC21777 | 3.34e6 | 3.86e6 | 3.83e6 |
| gammaTub37C (gamma-Tubulin at 37C) | DRSC03535 | 3.62e6 | 4.07e6 | 4.18e6 |
| ari-2 (ariadne 2) | DRSC04672 | 3.40e6 | 3.84e6 | 3.82e6 |
| GstE3 (Glutathione S transferase E3) | DRSC06673 | 3.42e6 | 3.79e6 | 3.93e6 |
| Phs (Phaser) | DRSC10827 | 3.58e6 | 4.03e6 | 4.09e6 |
| Klp3A (Kinesin-like protein at 3A) | DRSC18676 | 3.60e6 | 3.99e6 | 4.17e6 |
| Klp3A (Kinesin-like protein at 3A) | DRSC21625 | 3.74e6 | 4.24e6 | 4.18e6 |
| CG8607 | DRSC11012 | 3.52e6 | 3.92e6 | 4.07e6 |
| Gr77a (Gustatory receptor 77a) | DRSC11446 | 3.66e6 | 4.36e6 | 3.92e6 |
| Sdhaf3 (Succinate dehydrogenase assembly factor 3) | DRSC15020 | 3.15e6 | 3.59e6 | 3.59e6 |
| CG17821 | DRSC06696 | 3.51e6 | 3.99e6 | 3.95e6 |
| Prp4k (Pre-mRNA processing factor 4 kinase) | DRSC08144 | 3.38e6 | 3.88e6 | 3.80e6 |
| CG32440 | DRSC11480 | 3.74e6 | 4.23e6 | 4.23e6 |
| comt (comatose) | DRSC20319 | 3.36e6 | 3.84e6 | 3.81e6 |
| CG17048 | DRSC06649 | 3.62e6 | 3.98e6 | 4.03e6 |
| sbb (scribbler) | DRSC05723 | 3.50e6 | 3.96e6 | 3.99e6 |
| sbb (scribbler) | DRSC07676 | 3.49e6 | 4.01e6 | 3.89e6 |
| CG18367 | DRSC06545 | 3.72e6 | 3.79e6 | 3.74e6 |
| EMC5 (ER membrane protein complex subunit 5) | DRSC02469 | 3.67e6 | 4.18e6 | 4.12e6 |
| t-Grip128 (testis-specific gamma-tubulin ring protein 128) | DRSC07853 | 3.64e6 | 4.13e6 | 4.12e6 |
| dbo (diablo) | DRSC11339 | 3.69e6 | 4.14e6 | 4.17e6 |
| l(2)k09848 (lethal (2) k09848) | DRSC04894 | 3.38e6 | 3.89e6 | 3.70e6 |
| Cyt-c-p (Cytochrome c proximal) | DRSC03310 | 3.46e6 | 3.94e6 | 3.91e6 |
| Sar1 (Secretion-associated Ras-related 1) | DRSC17049 | 3.54e6 | 3.98e6 | 4.05e6 |
| Sar1 (Secretion-associated Ras-related 1) | DRSC22115 | 3.52e6 | 4.00e6 | 4.00e6 |
| Polr2M (RNA polymerase II subunit M) | DRSC15513 | 3.22e6 | 3.74e6 | 3.68e6 |
| CG3792 | DRSC02725 | 3.63e6 | 4.08e6 | 4.11e6 |
| ZC3H3 | DRSC10696 | 3.05e6 | 3.47e6 | 3.55e6 |
| CG33268 | DRSC10143 | 3.46e6 | 3.86e6 | 3.98e6 |
| Rint1 (RAD50 interactor 1) | DRSC11010 | 3.58e6 | 3.95e6 | 4.17e6 |
| CG40583 (retired record) | DRSC20938 | 2.30e6 | 3.94e6 | 3.93e6 |
| plh (pasang lhamu) | DRSC12294 | 3.37e6 | 3.84e6 | 3.74e6 |
| Doc3 (Dorsocross3) | DRSC10480 | 3.41e6 | 3.84e6 | 3.87e6 |
| Dis3 | DRSC16034 | 3.41e6 | 3.87e6 | 3.86e6 |
| scaf6 (SR-related CTD associated factor 6) | DRSC10075 | 3.60e6 | 4.07e6 | 4.08e6 |
| scaf6 (SR-related CTD associated factor 6) | DRSC10676 | 3.31e6 | 3.75e6 | 3.68e6 |
| scaf6 (SR-related CTD associated factor 6) | DRSC10678 | 3.22e6 | 3.67e6 | 3.63e6 |

Part of the list above, showing only “viability with MMS, replicate 2”.
CG6938 [DRSC10752] = 3.99e6
CG42365 [DRSC04266] = 3.97e6
fand (fandango) [DRSC06967] = 3.68e6
Alg2 (ALG2, alpha-1,3/1,6-mannosyltransferase) [DRSC08298] = 3.86e6
CR31292 (pseudo) [DRSC13120] = 3.70e6
fzy (fizzy) [DRSC03534] = 3.54e6
